Measured values: the supplement of paper PMC10849652
The other results are listed elsewhere or left out.

The chains behind the UniProt entries cited, without tags or fusion partners. Where a name states a change or a piece, a line headed by the entry shows the natural chain unless it says otherwise.
UniProt Q9NP72: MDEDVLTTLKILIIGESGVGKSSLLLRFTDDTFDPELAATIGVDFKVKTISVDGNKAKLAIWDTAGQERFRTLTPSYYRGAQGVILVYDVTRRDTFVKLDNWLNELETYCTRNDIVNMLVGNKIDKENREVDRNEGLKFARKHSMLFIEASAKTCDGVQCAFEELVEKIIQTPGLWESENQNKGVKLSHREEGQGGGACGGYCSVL
UniProt Q99638: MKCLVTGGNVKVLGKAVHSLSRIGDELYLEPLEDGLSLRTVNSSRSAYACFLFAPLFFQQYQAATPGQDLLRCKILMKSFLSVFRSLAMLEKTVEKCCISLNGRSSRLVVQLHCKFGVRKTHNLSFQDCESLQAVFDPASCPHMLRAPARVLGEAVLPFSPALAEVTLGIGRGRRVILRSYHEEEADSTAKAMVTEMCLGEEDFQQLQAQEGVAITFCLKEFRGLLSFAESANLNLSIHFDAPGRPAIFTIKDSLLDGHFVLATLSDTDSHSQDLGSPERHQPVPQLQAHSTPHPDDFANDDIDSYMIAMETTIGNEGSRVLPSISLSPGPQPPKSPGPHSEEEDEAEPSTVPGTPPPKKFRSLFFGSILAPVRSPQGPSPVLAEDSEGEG
UniProt Q8TBN0: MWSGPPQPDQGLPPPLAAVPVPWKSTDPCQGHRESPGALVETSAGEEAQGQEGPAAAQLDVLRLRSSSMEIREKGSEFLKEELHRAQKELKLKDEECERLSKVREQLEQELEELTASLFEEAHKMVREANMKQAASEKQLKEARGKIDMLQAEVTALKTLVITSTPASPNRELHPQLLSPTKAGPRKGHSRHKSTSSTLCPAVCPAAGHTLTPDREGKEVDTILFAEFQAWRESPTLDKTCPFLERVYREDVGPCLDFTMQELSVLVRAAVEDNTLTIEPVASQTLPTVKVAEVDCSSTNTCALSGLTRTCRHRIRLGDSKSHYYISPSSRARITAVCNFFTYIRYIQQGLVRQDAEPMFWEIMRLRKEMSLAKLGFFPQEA
UniProt Q13637: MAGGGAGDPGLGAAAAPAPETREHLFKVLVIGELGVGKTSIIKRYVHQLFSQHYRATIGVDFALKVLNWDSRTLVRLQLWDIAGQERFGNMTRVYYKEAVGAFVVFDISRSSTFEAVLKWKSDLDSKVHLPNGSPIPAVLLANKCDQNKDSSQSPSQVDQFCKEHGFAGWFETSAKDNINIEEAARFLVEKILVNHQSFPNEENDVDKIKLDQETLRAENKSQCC
UniProt P06737: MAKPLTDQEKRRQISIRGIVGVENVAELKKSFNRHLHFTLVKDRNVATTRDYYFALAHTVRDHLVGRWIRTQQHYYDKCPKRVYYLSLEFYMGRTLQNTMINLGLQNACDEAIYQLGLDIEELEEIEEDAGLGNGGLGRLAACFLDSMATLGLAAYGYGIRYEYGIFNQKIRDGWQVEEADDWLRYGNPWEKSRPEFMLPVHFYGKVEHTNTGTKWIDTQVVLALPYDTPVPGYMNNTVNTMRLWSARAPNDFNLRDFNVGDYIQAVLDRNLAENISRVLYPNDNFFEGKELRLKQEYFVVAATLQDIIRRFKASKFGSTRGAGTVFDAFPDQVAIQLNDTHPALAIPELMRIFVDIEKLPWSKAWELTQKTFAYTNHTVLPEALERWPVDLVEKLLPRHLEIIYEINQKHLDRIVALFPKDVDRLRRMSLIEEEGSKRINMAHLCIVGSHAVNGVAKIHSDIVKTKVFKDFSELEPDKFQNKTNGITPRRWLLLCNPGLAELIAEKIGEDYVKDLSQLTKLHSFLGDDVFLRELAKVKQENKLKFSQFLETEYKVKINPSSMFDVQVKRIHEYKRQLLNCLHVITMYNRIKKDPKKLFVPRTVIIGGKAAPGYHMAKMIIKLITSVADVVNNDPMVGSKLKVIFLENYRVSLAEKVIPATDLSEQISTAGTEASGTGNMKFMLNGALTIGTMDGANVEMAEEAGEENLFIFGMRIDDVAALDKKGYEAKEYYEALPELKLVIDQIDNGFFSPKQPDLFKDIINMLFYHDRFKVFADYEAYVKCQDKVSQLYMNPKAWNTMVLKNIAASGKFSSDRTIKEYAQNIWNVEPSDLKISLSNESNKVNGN
UniProt Q9HD47: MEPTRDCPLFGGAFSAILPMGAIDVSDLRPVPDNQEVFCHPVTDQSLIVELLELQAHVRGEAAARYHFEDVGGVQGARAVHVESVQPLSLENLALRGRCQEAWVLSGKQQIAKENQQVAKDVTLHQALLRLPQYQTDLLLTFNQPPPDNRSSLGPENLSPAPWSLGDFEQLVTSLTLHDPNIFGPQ
UniProt O14966: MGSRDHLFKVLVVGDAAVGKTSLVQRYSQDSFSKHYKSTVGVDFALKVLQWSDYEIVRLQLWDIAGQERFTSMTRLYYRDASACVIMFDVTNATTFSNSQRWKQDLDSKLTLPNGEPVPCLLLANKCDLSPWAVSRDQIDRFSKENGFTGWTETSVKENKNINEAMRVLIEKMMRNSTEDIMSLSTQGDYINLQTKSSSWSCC
UniProt Q15771: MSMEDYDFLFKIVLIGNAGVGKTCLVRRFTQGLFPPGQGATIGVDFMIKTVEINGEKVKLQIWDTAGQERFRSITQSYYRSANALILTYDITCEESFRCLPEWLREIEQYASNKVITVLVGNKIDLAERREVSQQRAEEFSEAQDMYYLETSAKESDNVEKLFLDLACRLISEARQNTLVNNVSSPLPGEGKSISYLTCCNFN
UniProt O75154: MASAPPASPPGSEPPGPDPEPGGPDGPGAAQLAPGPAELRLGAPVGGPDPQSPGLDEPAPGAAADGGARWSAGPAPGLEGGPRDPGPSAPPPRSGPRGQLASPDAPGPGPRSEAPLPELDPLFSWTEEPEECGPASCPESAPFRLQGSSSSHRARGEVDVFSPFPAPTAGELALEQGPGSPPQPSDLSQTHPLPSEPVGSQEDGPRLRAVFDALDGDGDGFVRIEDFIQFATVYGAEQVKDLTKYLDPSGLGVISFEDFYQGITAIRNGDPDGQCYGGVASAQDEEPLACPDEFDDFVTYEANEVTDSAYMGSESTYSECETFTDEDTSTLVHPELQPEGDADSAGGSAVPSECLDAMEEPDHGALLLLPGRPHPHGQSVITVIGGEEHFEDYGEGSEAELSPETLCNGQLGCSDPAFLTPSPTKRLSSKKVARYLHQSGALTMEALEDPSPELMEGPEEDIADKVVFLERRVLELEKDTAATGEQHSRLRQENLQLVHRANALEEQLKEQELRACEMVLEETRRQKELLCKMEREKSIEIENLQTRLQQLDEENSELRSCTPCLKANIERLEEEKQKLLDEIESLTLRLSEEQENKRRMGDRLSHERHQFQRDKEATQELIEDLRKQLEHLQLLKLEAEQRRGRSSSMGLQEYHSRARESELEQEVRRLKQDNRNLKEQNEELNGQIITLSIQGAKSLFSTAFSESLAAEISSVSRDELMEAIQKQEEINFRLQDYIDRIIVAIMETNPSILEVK
UniProt Q86YS3: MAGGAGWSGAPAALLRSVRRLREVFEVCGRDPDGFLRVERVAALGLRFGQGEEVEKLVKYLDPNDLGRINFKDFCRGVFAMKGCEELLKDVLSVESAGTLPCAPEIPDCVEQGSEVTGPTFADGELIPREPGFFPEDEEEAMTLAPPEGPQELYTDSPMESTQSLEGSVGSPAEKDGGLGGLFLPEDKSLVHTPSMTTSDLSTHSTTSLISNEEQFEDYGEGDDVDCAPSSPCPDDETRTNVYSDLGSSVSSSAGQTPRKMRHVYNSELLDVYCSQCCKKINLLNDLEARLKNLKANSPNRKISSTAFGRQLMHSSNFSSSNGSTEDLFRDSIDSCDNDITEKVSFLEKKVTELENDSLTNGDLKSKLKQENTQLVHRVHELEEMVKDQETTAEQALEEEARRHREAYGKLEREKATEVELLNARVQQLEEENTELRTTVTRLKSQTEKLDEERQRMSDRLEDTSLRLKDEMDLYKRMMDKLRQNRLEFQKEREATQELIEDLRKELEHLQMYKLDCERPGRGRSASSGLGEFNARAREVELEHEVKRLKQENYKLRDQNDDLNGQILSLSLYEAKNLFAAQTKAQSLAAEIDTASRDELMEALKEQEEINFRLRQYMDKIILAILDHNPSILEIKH
UniProt Q9Y620: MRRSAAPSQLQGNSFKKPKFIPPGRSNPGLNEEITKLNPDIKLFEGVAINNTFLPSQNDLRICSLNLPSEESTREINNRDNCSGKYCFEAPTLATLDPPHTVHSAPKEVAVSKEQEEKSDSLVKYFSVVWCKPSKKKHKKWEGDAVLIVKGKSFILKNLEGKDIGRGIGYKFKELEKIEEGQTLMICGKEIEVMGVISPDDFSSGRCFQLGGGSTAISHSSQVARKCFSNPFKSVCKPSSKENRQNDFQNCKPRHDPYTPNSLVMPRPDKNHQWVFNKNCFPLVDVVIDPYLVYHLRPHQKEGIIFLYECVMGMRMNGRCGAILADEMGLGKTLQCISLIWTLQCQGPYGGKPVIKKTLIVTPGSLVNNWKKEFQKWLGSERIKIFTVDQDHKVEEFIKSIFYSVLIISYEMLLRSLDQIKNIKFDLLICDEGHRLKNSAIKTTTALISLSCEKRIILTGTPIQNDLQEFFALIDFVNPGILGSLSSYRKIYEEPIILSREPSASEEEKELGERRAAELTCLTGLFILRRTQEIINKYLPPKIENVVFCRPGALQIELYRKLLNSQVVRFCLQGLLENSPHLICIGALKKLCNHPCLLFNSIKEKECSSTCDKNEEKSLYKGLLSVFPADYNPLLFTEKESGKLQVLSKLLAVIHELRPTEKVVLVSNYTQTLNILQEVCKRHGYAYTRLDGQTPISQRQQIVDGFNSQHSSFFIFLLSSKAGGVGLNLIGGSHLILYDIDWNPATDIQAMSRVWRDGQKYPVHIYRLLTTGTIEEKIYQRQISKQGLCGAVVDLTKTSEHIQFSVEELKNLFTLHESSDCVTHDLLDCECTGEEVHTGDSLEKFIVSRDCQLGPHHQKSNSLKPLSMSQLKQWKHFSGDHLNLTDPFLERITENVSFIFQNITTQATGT
UniProt O95716: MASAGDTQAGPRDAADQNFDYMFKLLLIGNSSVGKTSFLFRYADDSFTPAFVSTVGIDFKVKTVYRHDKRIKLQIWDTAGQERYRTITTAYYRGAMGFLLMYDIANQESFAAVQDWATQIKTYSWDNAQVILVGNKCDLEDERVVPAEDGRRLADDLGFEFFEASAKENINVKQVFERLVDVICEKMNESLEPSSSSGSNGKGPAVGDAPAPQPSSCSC
UniProt P52306: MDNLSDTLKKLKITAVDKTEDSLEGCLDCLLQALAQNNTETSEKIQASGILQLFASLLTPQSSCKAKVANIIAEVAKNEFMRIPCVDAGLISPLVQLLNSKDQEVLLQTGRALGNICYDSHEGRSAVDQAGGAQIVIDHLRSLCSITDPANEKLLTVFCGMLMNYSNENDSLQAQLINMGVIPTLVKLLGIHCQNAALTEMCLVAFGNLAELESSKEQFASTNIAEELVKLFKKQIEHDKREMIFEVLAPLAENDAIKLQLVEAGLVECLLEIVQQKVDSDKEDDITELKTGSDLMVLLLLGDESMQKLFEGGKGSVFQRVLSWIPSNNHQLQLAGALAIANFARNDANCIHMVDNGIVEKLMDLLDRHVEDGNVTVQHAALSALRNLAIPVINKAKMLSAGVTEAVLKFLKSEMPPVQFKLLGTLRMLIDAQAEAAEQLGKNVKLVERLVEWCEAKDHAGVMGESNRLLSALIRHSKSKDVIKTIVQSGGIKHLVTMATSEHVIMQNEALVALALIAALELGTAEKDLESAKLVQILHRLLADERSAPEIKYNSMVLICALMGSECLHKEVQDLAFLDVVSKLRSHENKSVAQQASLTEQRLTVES
UniProt Q86X27: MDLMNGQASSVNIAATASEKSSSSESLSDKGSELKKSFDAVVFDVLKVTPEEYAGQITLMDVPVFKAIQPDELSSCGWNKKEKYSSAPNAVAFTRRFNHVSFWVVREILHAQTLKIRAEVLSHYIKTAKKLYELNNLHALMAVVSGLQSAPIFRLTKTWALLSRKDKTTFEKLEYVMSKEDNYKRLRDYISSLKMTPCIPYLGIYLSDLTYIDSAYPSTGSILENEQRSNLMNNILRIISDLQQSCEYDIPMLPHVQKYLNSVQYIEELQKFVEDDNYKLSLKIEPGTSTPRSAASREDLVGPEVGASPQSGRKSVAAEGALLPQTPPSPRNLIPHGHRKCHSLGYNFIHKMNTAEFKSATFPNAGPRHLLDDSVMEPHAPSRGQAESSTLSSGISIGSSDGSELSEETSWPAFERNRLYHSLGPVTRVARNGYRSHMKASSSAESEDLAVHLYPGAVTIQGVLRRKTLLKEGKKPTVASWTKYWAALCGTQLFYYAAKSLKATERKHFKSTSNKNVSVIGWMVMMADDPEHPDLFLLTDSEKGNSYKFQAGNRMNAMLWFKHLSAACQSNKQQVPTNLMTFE
UniProt Q86YS6: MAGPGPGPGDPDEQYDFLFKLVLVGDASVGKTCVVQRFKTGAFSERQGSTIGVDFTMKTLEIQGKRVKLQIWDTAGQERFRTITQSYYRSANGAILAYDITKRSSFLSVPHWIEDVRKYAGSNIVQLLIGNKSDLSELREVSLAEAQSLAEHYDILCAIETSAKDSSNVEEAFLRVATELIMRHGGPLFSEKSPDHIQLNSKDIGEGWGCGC

Experiments:
Experiment in all cases: log2 fold change, soluble protein after heating vs DMSO (PISA); higher = thermal stabilisation; K562 lysate, 10 uM; active = over 0.2 and 3.5 SD of the protein, either way, in both replicates (recomputed)
vemurafenib = compound: CCCS(=O)(=O)Nc1ccc(F)c(C(=O)c2c[nH]c3ncc(-c4ccc(Cl)cc4)cc23)c1F [vemurafenib]
Method in brief: (§1)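 To prepare the extract, K562 pellets were dounce-homogenised in PBS pH 7.4 with 1 mM MgCl2, giving crude material at 1 mg/mL protein. This was treated with 10 μM compound for 30 min, then heated in aliquots for 3 min over 48°C-58°C before pooling and addition of NP-40 to 0.5% at 4°C. Centrifugation at 21,000xg for 90 min left soluble protein in the supernatant, which TMTpro 16plex LC-MS/MS quantified with equalised channel sums. Results are log-two fold changes in thermal stability compared with solvent controls, from duplicates.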

[1] = compound: CCCS(=O)(=O)Nc1ccc(F)c(C(=O)c2c[nH]c3ncc(Cl)cc23)c1F
Method in brief: as §1

barasertib = compound: CCN(CCCOc1ccc2c(Nc3cc(CC(=O)Nc4cccc(F)c4)[nH]n3)ncnc2c1)CCOP(=O)(O)O [barasertib]
Method in brief: as §1

[2] = compound: CC[C@@H]1C(=O)N(C)c2cnc(Nc3ccc(C(=O)NC4CCN(C)CC4)cc3OC)nc2N1C1CCCC1
Method in brief: as §1

volasertib = compound: CC[C@@H]1C(=O)N(C)c2cnc(Nc3ccc(C(=O)N[C@H]4CC[C@H](N5CCN(CC6CC6)CC5)CC4)cc3OC)nc2N1C(C)C [volasertib]
Method in brief: as §1

[3] = compound: CCn1c(C(=O)N(C2CC2)C2CC2)cc2c3c(ncn3C)c(Nc3cc(C)n(C)n3)nc21
Method in brief: as §1

saracatinib = compound: CN1CCN(CCOc2cc(OC3CCOCC3)c3c(Nc4c(Cl)ccc5c4OCO5)ncnc3c2)CC1 [saracatinib]
Method in brief: as §1

sotrastaurin = compound: CN1CCN(c2nc(C3=C(c4c[nH]c5ccccc45)C(=O)NC3=O)c3ccccc3n2)CC1 [sotrastaurin]
Method in brief: as §1

[4] = compound: CCn1cc(-c2ccnc3[nH]c(-c4cccc(CN(C)C)c4)cc23)c(-c2ccc(NC(=O)N(C)C)cc2)n1
Method in brief: as §1

[5] = compound: CN1CCC(CNc2ccc3ncc(-c4cccc(OC(F)(F)F)c4)n3n2)CC1
Method in brief: as §1

Measured: log2 fold change

RAB20 (UniProt Q9NX57)
inactive: vemurafenib 0.064 | [1] 0.167 | barasertib -0.171 | [2] 0.007 | volasertib -0.025 | [3] -0.068 | saracatinib -0.016 | sotrastaurin -0.001

RAB18 (UniProt Q9NP72)
inactive: vemurafenib -0.06 | [1] -0.128 | barasertib 0.021 | [2] -0.043 | volasertib 0.005 | [4] 0.132 | [5] -0.051 | saracatinib 0.151 | sotrastaurin 0.033

RAD9A (UniProt Q99638)
inactive: vemurafenib -0.043 | [1] 0.006 | barasertib 0.038 | [2] -0.063 | volasertib -0.001 | [3] 0.04 | [4] -0.038 | [5] 0.038 | saracatinib 0.009 | sotrastaurin 0.052

RAB5IF isoform 5 (UniProt Q9BUV8)
active: [4] 0.928
inactive: vemurafenib -0.075 | [1] 0.129 | barasertib 0.142 | [2] -0.03 | volasertib -0.398 | [5] -0.362 | saracatinib 0.009

Reprinted at random: two entries already listed, in no set order.
RAB5IF isoform 5 (UniProt Q9BUV8)
active: [4] 0.928
inactive: vemurafenib -0.075 | [1] 0.129 | barasertib 0.142 | [2] -0.03 | volasertib -0.398 | [5] -0.362 | saracatinib 0.009

RAB18 (UniProt Q9NP72)
inactive: vemurafenib -0.06 | [1] -0.128 | barasertib 0.021 | [2] -0.043 | volasertib 0.005 | [4] 0.132 | [5] -0.051 | saracatinib 0.151 | sotrastaurin 0.033

Additional entries:

RABAC1 (UniProt Q9UI14)
inactive: vemurafenib 0.026 | [1] 0.028 | barasertib -0.005 | [2] 0.175 | volasertib 0.001 | [3] -0.099 | saracatinib 0.005 | sotrastaurin 0.206

RANBP1 (UniProt P43487)
inactive: vemurafenib -0.015 | [1] -0.027 | barasertib -0.055 | [2] -0.024 | volasertib 0.035 | [3] -0.031 | [4] -0.012 | [5] 0.006 | saracatinib -0.016 | sotrastaurin -0.019

RAB3IL1 (UniProt Q8TBN0)
inactive: vemurafenib -0.018 | [1] 0.017 | barasertib 0.054 | [2] 0.022 | volasertib -0.008 | [3] 0.054 | [4] 0.025 | [5] -0.016 | saracatinib 0.033 | sotrastaurin -0.024

RAB32 (UniProt Q13637)
inactive: vemurafenib -0.054 | [1] 0.055 | barasertib 0.037 | [2] 0.04 | volasertib 0.083 | [3] -0.035 | [4] -0.202 | [5] 0.115 | saracatinib 0.006 | sotrastaurin 0.012

RAB2A (UniProt P61019)
inactive: vemurafenib -0.127 | [1] 0.002 | barasertib 0.022 | [2] -0.232 | volasertib 0.02 | [3] 0.045 | [4] 0.051 | [5] 0.04 | saracatinib 0.021 | sotrastaurin 0.031

PYGL (UniProt P06737)
inactive: vemurafenib -0.013 | [1] 0 | barasertib -0.002 | [2] -0.103 | volasertib -0.003 | [3] 0.018 | [4] -0.058 | [5] 0.034 | saracatinib -0.006 | sotrastaurin -0.007

RAP1B (UniProt F5GZG1)
inactive: vemurafenib 0.025 | [1] -0.069 | barasertib 0.043 | [2] -0.013 | volasertib -0.015 | [4] 0.471 | [5] 0.041 | saracatinib 0.094 | sotrastaurin -0.038

RANBP3 isoform 2 (UniProt Q9H6Z4)
inactive: vemurafenib 0.017 | [1] -0.01 | barasertib -0.096 | [2] 0.134 | volasertib -0.011 | [3] -0.076 | saracatinib -0.087 | sotrastaurin -0.054

RANGRF (UniProt Q9HD47)
inactive: [1] 0.054 | volasertib -0.052 | [3] -0.056 | saracatinib 0.06 | sotrastaurin 0.117

RALGAPA2 (UniProt Q2PPJ7)
inactive: [1] 0.011 | volasertib -0.145 | [4] -0.087 | [5] -0.121 | sotrastaurin 0.423

RAB29 (UniProt O14966)
inactive: [3] -0.097 | [4] 0.195 | [5] 0.001 | saracatinib -0.124

RAB11FIP5, A0A1B0GTL5
inactive: [1] 0.044 | volasertib 0.142 | [4] -0.197 | [5] 0.113 | sotrastaurin 0.24

PYHIN1 (UniProt Q6K0P9)
inactive: [1] -0.006 | volasertib -0.011 | [3] -0.239 | saracatinib -0.05 | sotrastaurin 0.018

QARS1, A0A0U1RR66
inactive: [1] -0.257 | volasertib -0.07

RACK1 (UniProt D6RHH4)
inactive: vemurafenib 0.235 | barasertib 0.906 | [4] 1.62 | [5] 0.219

RAB30 (UniProt Q15771)
inactive: vemurafenib -0.04 | barasertib 0.009 | [2] -0.127 | [4] -0.074 | [5] 0.129 | saracatinib 0.016 | sotrastaurin 0.075

R3HDM2 (UniProt B5MCU0)
inactive: [2] 0.031 | [3] -0.071 | sotrastaurin -0.023

RAB11FIP3 isoform 3 (UniProt O75154)
inactive: [1] -0.058 | [2] -0.055 | volasertib 0.098 | [3] -0.098 | saracatinib 0.277

RAD17 (UniProt O75943)
inactive: vemurafenib -0.091 | barasertib 0.131 | [2] 0.017 | [3] 0.07 | [4] -0.214 | [5] -0.027 | saracatinib 0.042 | sotrastaurin -0.004

RAB3B (UniProt P20337)
inactive: [4] -0.007 | [5] 0.037 | sotrastaurin 0.022

NA (UniProt Q4G0T1)
inactive: [3] 0.032 | [4] 0.022 | [5] 0.026 | saracatinib -0.033 | sotrastaurin 0.129

RAB11FIP4 isoform 2 (UniProt Q86YS3)
inactive: [3] -0.304

2 successive entries from above, for reference:
RAB3B (UniProt P20337)
inactive: [4] -0.007 | [5] 0.037 | sotrastaurin 0.022

NA (UniProt Q4G0T1)
inactive: [3] 0.032 | [4] 0.022 | [5] 0.026 | saracatinib -0.033 | sotrastaurin 0.129

Later entries:

QSOX1 (UniProt O00391)
inactive: [2] 0.097 | [4] 0.087 | [5] -0.011 | saracatinib -0.154 | sotrastaurin 0.136

RAD54B (UniProt Q9Y620)
inactive: vemurafenib 0.228 | [2] 0.135 | [3] -0.101 | saracatinib 0.106 | sotrastaurin 0.016

PYGO2 (UniProt Q9BRQ0)
inactive: barasertib 0.036 | [2] -0.106 | [3] 0 | [4] -0.044 | [5] 0.042 | saracatinib 0.07 | sotrastaurin -0.022

RAB3D (UniProt O95716)
inactive: vemurafenib -0.102 | [1] -0.034 | [2] 0.08 | volasertib -0.024 | [3] 0.145 | saracatinib -0.015 | sotrastaurin -0.051

RAP1GDS1 isoform 4 (UniProt P52306)
inactive: [1] -0.057 | barasertib -0.056 | volasertib 0.047 | [4] -0.058 | [5] 0.089

RALGPS2 (UniProt Q86X27)
inactive: vemurafenib 0.08 | barasertib 0.048 | [2] 0.119 | [3] -0.107 | [4] 0.454 | [5] -0.022 | sotrastaurin -0.026

RACK1 (UniProt D6RF23)
inactive: vemurafenib 0.076 | barasertib 0.078 | [2] -0.201

R3HDM4 (UniProt Q96D70)
inactive: vemurafenib 0.166 | [2] 0.009 | [3] -0.064 | [4] 0.093 | [5] 0.078 | saracatinib -0.039 | sotrastaurin 0.067

RAC3 (UniProt P60763)
inactive: vemurafenib -0.002 | [2] 0.041 | [4] -0.044 | [5] -0.092 | sotrastaurin -0.128

RALGAPB isoform 3 (UniProt Q86X10)
inactive: barasertib -0.005 | [2] -0.076 | [4] -0.139 | [5] 0.004 | saracatinib -0.343

RAB43 (UniProt Q86YS6)
inactive: barasertib 0.047 | [2] 0.031 | [3] -0.01 | [4] 0.01 | [5] 0.034 | saracatinib -0.43

RAD51B (UniProt O15315)
inactive: vemurafenib -0.117 | barasertib 0.164 | [2] 0.084 | [3] -0.04 | [4] 0.004 | [5] -0.141 | saracatinib 0.002 | sotrastaurin -0.014

RAI1 (UniProt Q7Z5J4)
inactive: [2] -0.111 | sotrastaurin 0.041

RAD23A isoform 3 (UniProt P54725)
inactive: [1] 0.054 | volasertib 0.148 | [3] -0.237 | [4] 0.045 | [5] 0.054

RAB27B (UniProt O00194)
inactive: vemurafenib -0.04 | [1] 0.071 | [2] -0.154 | volasertib -0.017 | [4] 0.002 | [5] -0.034 | saracatinib 0.05

RAB39B (UniProt Q96DA2)
inactive: barasertib 0.097 | [4] -1.43 | [5] 0.426

RAD51AP1 (UniProt Q96B01)
inactive: [1] 0.04 | barasertib -0.074 | [2] 0.076 | volasertib 0.086 | [3] -0.118 | [4] -0.057 | [5] 0.1 | saracatinib 0.07 | sotrastaurin 0.007

PYCARD isoform 2 (UniProt Q9ULZ3)
inactive: [1] 0.039 | barasertib 0.316 | volasertib 0.025 | [3] 0.071 | [4] -0.082 | [5] -0.025 | sotrastaurin -0.054

RAD54L (UniProt Q92698)
active: [4] -2.19
inactive: [1] -0.054 | barasertib 0.012 | volasertib 0.015 | [3] 0.005 | [5] 0.648 | saracatinib 0.095
